Assay results published in PubChem BioAssay AID1688 (National Center for Advancing Translational Sciences (NCATS), 2009).
Hit rate of the full screen: of about 220,000 compounds, about 2,400 (1.1%) were called active. This list was built around the results that the source calls inconclusive (neither active nor inactive); the mix of calls is not that of the screen. Calls follow the shape of the dose curve; as a rule, active = well fitted inhibition curve with a large enough effect; inconclusive = small, poorly fitted or top-dose-only effect, or effect the other way; inactive = no such curve, though single readings can be large or run the other way. Potencies of inconclusive entries are doubtful fits and often do not repeat.

Experiment: qHTS Multiplex Assay to Identify Dual Action Probes in a Cell Model of Huntington: Aggregate Formation (GFP); also: nearly all actives have a fitted effect of over 60% in size
Conditions: PC12 HttQ103-GFP aggregates, Acumen cytometry, 40 h; activity change, negative = inhibition: at 46.1 µM (top of the series) unless noted
In short: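 PC12 cells stably carrying ecdysone-inducible HTT exon 1 Q103–GFP were induced with tebufenozide (100 nM final) and treated with library compounds in titration. GFP aggregates in lysates were counted by laser scanning cytometry.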
% is scaled to controls: 0 for no effect and ±100 for the full control effect; potency is read from the fitted curve at half-maximal effect.

SMILES | Potency | activity change, negative = inhibition
O=C(O)COc1ccc(C(=O)c2ccccc2)cc1 | inactive | –
O=S(=O)(c1ccc(-c2csc(-c3cccnc3)n2)cc1)N1CCCCC1 | inactive | –
C=CCOC(=O)C1=C(C)NC(SCC)=C(C#N)C1c1ccc(Cl)cc1 (stereo unspecified) | inconclusive: 15.8 µM [inhibitor, single point] | –
Oc1ccc(-c2n[nH]c(=S)n2-c2ccc3c(c2)OCCO3)c(O)c1 | inactive | –
O=C(NCc1ccco1)c1ccc(CNc2c(N3CCCCC3)c(=O)c2=O)cc1 | inactive | –
O=C(/C=C/c1ccc(F)cc1)c1ccccc1Br | inactive | –
CC(C)(C=O)C1=CC(=O)c2ccccc2C1=O | inconclusive: 14.1 µM [inhibitor, single point] | –
Cc1sc2ncnc(NCC(c3ccco3)N(C)C)c2c1C (stereo unspecified) | inconclusive: 10 µM [inhibitor, partial curve] | –
CCC(C(=O)Nc1sc(C(N)=O)c(C)c1C(=O)OC)c1ccccc1 (stereo unspecified) | inactive | –
O=C(/C=C/c1ccccc1)NNC1=NS(=O)(=O)c2ccccc21 | – | inactive: 9.43% [at 9.22 µM]
CCCNC(=O)NC1CCCc2ccccc21 (stereo unspecified) | inconclusive: 0.562 µM [activator, full curve, poor fit] | –
CCOc1ccccc1CNC(=O)c1cc2oc3ccccc3c2n1C | inconclusive: 15.8 µM [inhibitor, single point] | –
CCC(C)(C)C1CCC(=NNC(=S)Nc2ccccc2)CC1 (stereo unspecified) | inconclusive: 3.98 µM [inhibitor, full curve] | –
CCC(NC(=O)c1ccccc1O)c1ccccc1 (stereo unspecified) | inactive | –
O=C(CSc1nnc(-c2ccccc2Br)o1)N1CCc2ccccc2C1 | – | inactive: 11.6% [at 9.22 µM]
OC(COc1ccc2cc(Br)ccc2c1)CN1CCN(c2ccccn2)CC1 (stereo unspecified) | inconclusive: 0.562 µM [inhibitor, full curve, poor fit] | –
CCOC(=O)c1ccc(NC(=O)CC2Sc3ncnn3C2=O)cc1 (stereo unspecified) | inactive | –
CC1CCCCN1C(=O)c1cc2nc(-c3ccccc3)cc(-c3ccccc3)n2n1 (stereo unspecified) | inconclusive: 22.4 µM [inhibitor, single point] | –
CCCC(=O)Oc1c(S(=O)(=O)c2ccc(C)cc2)c(C)nn1C(C)(C)C | inconclusive: 35.5 µM [inhibitor, partial curve, poor fit] | –
N#CC1=C(N)Oc2n[nH]c(-c3cccnc3)c2C1c1ccc([N+](=O)[O-])o1 (stereo unspecified) | inconclusive: 35.5 µM [inhibitor, single point] | –
CC(=C\C(=O)O)/C(=C/c1ccco1)C(=O)O | – | inactive: 11.7% [at 9.22 µM]
Cc1ccccc1NCc1ccccc1O | inconclusive: 35.5 µM [inhibitor, single point] | –
Cc1c(/C=N\NC(=O)C2COc3ccccc3O2)c2ccccc2n1C (stereo unspecified) | inconclusive: 35.5 µM [inhibitor, single point] | –
Cc1cc(-c2nnc(CCC(=O)N3CCN(Cc4cccc(F)c4)CC3)o2)c(C)o1 | – | inactive: 16.1% [at 9.22 µM]
CC1CN(c2ccc(S(=O)(=O)N3CCCC3)cn2)CC(C)O1 (stereo unspecified) | – | inactive: -14.6% [at 9.22 µM]
CCN(CC)S(=O)(=O)c1ccc(N2CCCC2)c(NS(=O)(=O)c2ccc(F)cc2)c1 | inconclusive: 5.62 µM [inhibitor, single point] | –

SMILES | Potency | activity change, negative = inhibition
Cn1nnc(NC(=O)CSc2ncn[nH]2)n1 | inactive | –
COc1ccc(C(NC(=O)C(C)C)c2c(O)ccc3ccccc23)cc1OC (stereo unspecified) | inconclusive: 1.78 µM [inhibitor, partial curve] | –
COc1ccc(-n2nnc3c(=O)n(Cc4cc(C)ccc4C)cnc32)cc1 | inactive | –
Cc1ccc(NCc2nc3ccccc3n2C)cc1 | inactive | –
COc1ccccc1N1CCN(C(=O)c2cc(-c3ccc4c(c3)OCO4)on2)CC1 | inactive | –
Cc1ccc(NC(=O)C2C(c3ccccc3)C2(Cl)Cl)c(C)c1 (stereo unspecified) | inconclusive: 20 µM [inhibitor, single point] | –
CCCCCCn1c(NCC)nc2c1c(=O)n(C)c(=O)n2C | active: 3.98 µM | –
CC(NC(=O)CSc1ncccn1)c1ccccc1 (stereo unspecified) | inconclusive: 35.5 µM [activator, single point] | –
CCCCCCOc1ccc(C(=N)N(CCCC)CCCC)c2ccccc12 | inconclusive: 35.5 µM [inhibitor, single point] | –
CCOCC(=O)NCc1ccc2c(c1)OCO2 | inactive | –
O=C(N/N=C/c1cn(-c2cccs2)nc1-c1ccccc1)c1ccccc1O | inconclusive: 2.82 µM [inhibitor, single point] | –
COc1ccc(CCNc2ccc(N3C(=O)CC(C)C3=O)cc2[N+](=O)[O-])cc1OC (stereo unspecified) | inconclusive: 4.47 µM [inhibitor, full curve, poor fit] | –
COc1ccc(N2CC(C(=O)Nc3nnc(SCC(=O)c4ccccc4)s3)CC2=O)cc1 (stereo unspecified) | inactive | –
O=C1OCCC1Sc1nnnn1-c1ccccc1 (stereo unspecified) | inactive | –
CCOC(=O)c1ccc(N2C(=O)C=CC2=O)cc1 | active: 22.4 µM | –
COc1ccc(CCC(=O)Nc2ccc(-c3noc(-c4ccc(OC)c(OC)c4)n3)cc2)cc1 | inconclusive: 0.562 µM [inhibitor, partial curve, poor fit] | –
O=C(Nc1ccc(Cl)c(Cl)c1)N1CCSC1c1ccco1 (stereo unspecified) | inconclusive: 22.4 µM [inhibitor, single point] | –
COc1ccc(OC)c(NC(=O)CS(=O)(=O)Cc2nc(-c3ccccc3C)oc2C)c1 | inconclusive: 5.62 µM [activator, single point] | –
CCC(C)NS(=O)(=O)c1ccc(OCC(=O)NCc2ccc3c(c2)OCO3)cc1 (stereo unspecified) | inconclusive: 1 µM [inhibitor, full curve, poor fit] | –
CCOC(=O)c1sc(=S)n(-c2ccc(OC)cc2)c1C | – | inactive: -4.12% [at 9.22 µM]
CCOC(=O)c1c(C)[nH]c(C)c1-c1ccccc1OC | inactive | –
S=C(Nc1ccc(N2CCOCC2)cc1)Nc1ccc2snnc2c1 | inactive | –
Cc1cc(C)c2c(=O)n(CC(=O)NCCCN3CCN(c4ccccc4F)CC3)sc2n1 | inconclusive: 35.5 µM [inhibitor, single point] | –
c1ccc(Sc2ncnc3c2oc2ccccc23)nc1 | inconclusive: 3.55 µM [inhibitor, partial curve] | –
C/C(CC(=O)Nc1cccc(Cl)c1Cl)=N\NC(=O)c1ccccc1C | – | inactive: 9.96% [at 9.22 µM]
CCCCN(C)C(=S)Nc1ccc(Oc2ccccc2)cc1 | inconclusive: 0.708 µM [inhibitor, single point] | –

SMILES | Potency | activity change, negative = inhibition
O=[N+]([O-])c1c(C(Cl)Cl)nn(-c2ccc(Cl)cc2)c1N1CCCCC1 | inactive | –
O=C(N/N=C\c1cc(Br)ccc1O)c1ccc(S(=O)(=O)N2CCCCC2)cc1 | inconclusive: 0.126 µM [inhibitor, full curve] | –
NC(=O)c1sc2nc(N3CCCCC3)c3c(c2c1N)CCCC3 | inconclusive: 15.8 µM [inhibitor, single point] | –
Cc1ccc(SCn2nnc3ccccc3c2=O)c(C)c1 | inactive | –
O=C(Nc1ccc(N2CCN(C(=O)c3ccccc3)CC2)c(Cl)c1)c1ccc(Br)o1 | active: 11.2 µM | –
CCN(CC)C1=CC(=[N+]2CCCC2)CC(C)(C)C1 | inconclusive: 7.08 µM [inhibitor, partial curve] | –
CCn1c(=O)c([N+](=O)[O-])c(NCC(O)c2ccccc2)c2ccccc21 (stereo unspecified) | inactive | –
COc1ccc(C(=O)NC(=O)Nc2cc(C)ccn2)cc1 | inconclusive: 35.5 µM [inhibitor, single point] | –
CC(=O)Nc1ccc(-c2csc(NC(=O)Nc3ccccc3)n2)cc1 | inconclusive: 12.6 µM [inhibitor, single point] | –
Cc1ccc(SCCC(=O)OCn2nnc3ccccc3c2=O)cc1 | inactive | –
COc1ccc(NC(=S)NCCc2c(C)[nH]c3ccc(OC)cc23)cc1 | inconclusive: 8.91 µM [inhibitor, partial curve] | –
Cc1cccc2cc(C#N)c(NCCNC(=S)NCCCN3CCOCC3)nc12 | inconclusive: 6.31 µM [inhibitor, single point] | –
CSc1ccccc1-n1nnnc1SCc1ccccc1 | inconclusive: 35.5 µM [inhibitor, partial curve, poor fit] | –
CCc1ccccc1NC(=S)NCC1CCN(c2ccc(OC)cc2)C1 (stereo unspecified) | – | inactive: -10.3% [at 9.22 µM]
Cc1c(Cl)ccc2c(C(=O)NC(C)c3ccncc3)cc(-c3ccncc3)nc12 (stereo unspecified) | inactive | –
O=C(CNC(=S)N(Cc1ccccc1)Cc1ccccc1F)NCc1ccc(Cl)cc1 | inconclusive: 17.8 µM [inhibitor, single point] | –
Cc1ccc(C2Nc3ccccc3-c3nc4ccccc4n32)o1 (stereo unspecified) | inactive | –
CCOC(=O)Nc1ccc(OCc2nnc3c4ccccc4c(C)nn23)cc1 | inactive | –
Cc1ccc(CSc2nnc(SCC(=O)N/N=C/c3c(C)nn(-c4ccccc4)c3C)s2)cc1 | inconclusive: 35.5 µM [inhibitor, single point] | –
[2H]c1c([2H])c([2H])c(-c2nc(N3CCCCCC3)sc2C(=O)c2ccccc2)c([2H])c1[2H] | inconclusive: 22.4 µM [inhibitor, single point] | –
Cc1ccc(S(=O)(=O)NNC(=S)NC(C)(C)C)cc1 | – | inactive: -5.96% [at 9.22 µM]
CCCc1c(C(=O)NNc2ccc(C)cc2)cnn1-c1ccccc1 | – | inactive: 16.1% [at 9.22 µM]
CCn1c(SCC(=O)C(C)(C)C)nnc1-c1cnccn1 | inactive | –
Cc1c(C(=O)NCc2ccc3c(c2)OCO3)oc2ccc(S(=O)(=O)N3CCCCC3)cc12 | inactive | –

Structural class: the compounds so far containing an aryl methoxy group
SMILES | Potency | activity change, negative = inhibition
COc1ccc(C(NC(=O)C(C)C)c2c(O)ccc3ccccc23)cc1OC (stereo unspecified) | inconclusive: 1.78 µM [inhibitor, partial curve] | –
COc1ccc(-n2nnc3c(=O)n(Cc4cc(C)ccc4C)cnc32)cc1 | inactive | –
COc1ccccc1N1CCN(C(=O)c2cc(-c3ccc4c(c3)OCO4)on2)CC1 | inactive | –
COc1ccc(CCNc2ccc(N3C(=O)CC(C)C3=O)cc2[N+](=O)[O-])cc1OC (stereo unspecified) | inconclusive: 4.47 µM [inhibitor, full curve, poor fit] | –
COc1ccc(N2CC(C(=O)Nc3nnc(SCC(=O)c4ccccc4)s3)CC2=O)cc1 (stereo unspecified) | inactive | –
COc1ccc(CCC(=O)Nc2ccc(-c3noc(-c4ccc(OC)c(OC)c4)n3)cc2)cc1 | inconclusive: 0.562 µM [inhibitor, partial curve, poor fit] | –
COc1ccc(OC)c(NC(=O)CS(=O)(=O)Cc2nc(-c3ccccc3C)oc2C)c1 | inconclusive: 5.62 µM [activator, single point] | –
CCOC(=O)c1sc(=S)n(-c2ccc(OC)cc2)c1C | – | inactive: -4.12% [at 9.22 µM]
CCOC(=O)c1c(C)[nH]c(C)c1-c1ccccc1OC | inactive | –
COc1ccc(C(=O)NC(=O)Nc2cc(C)ccn2)cc1 | inconclusive: 35.5 µM [inhibitor, single point] | –
COc1ccc(NC(=S)NCCc2c(C)[nH]c3ccc(OC)cc23)cc1 | inconclusive: 8.91 µM [inhibitor, partial curve] | –
CCc1ccccc1NC(=S)NCC1CCN(c2ccc(OC)cc2)C1 (stereo unspecified) | – | inactive: -10.3% [at 9.22 µM]
